Measured values reported in patent US20150266922A1.
No constants are given. Whether binding was seen depends on the method and setting. In cells and extracts the contact can be indirect. Some entries that bind do so weakly or less than the wild type. Where a sequence is shown, tags or fusion partners need not be part of it.

Target: SUMO1E67A (UniProt P63165)
Assay: pull-down of recombinant protein on bead-immobilized SUMO1E67A

- binding: binds
B1: GST-PIAS3 (protein, UniProt Q9Y6X2 1-628, looked up, not shown: a dimerising Fc or GST)
chain: MAELGELKHMVMSFRVSELQVLLGFAGRNKSGRKHELLAKALHLLKSSCAPSVQMKIKELYRRRFPRKTLGPSDLSLLSLPPGTSPVGSPGPLAPIPPTLLAPGTLLGPKREVDMHPPLPQPVHPDVTMKPLPFYEVYGELIRPTTLASTSSQRFEEAHFTFALTPQQVQQILTSREVLPGAKCDYTIQVQLRFCLCETSCPQEDYFPPNLFVKVNGKLCPLPGYLPPTKNGAEPKRPSRPINITPLARLSATVPNTIVVNWSSEFGRNYSLSVYLVRQLTAGTLLQKLRAKGIRNPDHSRALIKEKLTADPDSEVATTSLRVSLMCPLGKMRLTVPCRALTCAHLQSFDAALYLQMNEKKPTWTCPVCDKKAPYESLIIDGLFMEILSSCSDCDEIQFMEDGSWCPMKPKKEASEVCPPPGYGLDGLQYSPVQGGDPSENKKKVEVIDLTIESSSDEEDLPPTKKHCSVTSAAIPALPGSKGVLTSGHQPSSVLRSPAMGTLGGDFLSSLPLHEYPPAFPLGADIQGLDLFSFLQTESQHYGPSVITSLDEQDALGHFFQYRGTPSHFLGPLAPTLGSSHCSATPAPPPGRVSSIVAPGGALREGHGGPLPSGPSLTGCRSDIISLD
